Results as given in PMC2847535.
Where a chain is given by its changes, count along the chain named. Results are given in words; binding and its absence hold for the method and conditions named. Binding seen in cells or lysates may run through a third protein. Some binding calls cover weakened binding; strength is not graded here. Where a sequence is shown, tags or fusion partners need not be part of it. One block for each binder: values may come before it.

The chains behind the UniProt entries cited, without tags or fusion partners.
UniProt Q9NQT4: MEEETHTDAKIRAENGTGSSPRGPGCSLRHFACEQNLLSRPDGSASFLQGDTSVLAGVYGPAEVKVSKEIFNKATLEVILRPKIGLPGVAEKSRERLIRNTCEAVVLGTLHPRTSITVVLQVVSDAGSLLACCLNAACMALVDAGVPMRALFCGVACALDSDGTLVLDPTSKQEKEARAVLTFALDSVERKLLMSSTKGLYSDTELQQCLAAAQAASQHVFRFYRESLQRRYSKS

Target: endogenous exosome component Rrp46 (human (endogenous in 293TRex)) (UniProt Q9NQT4)
Test: co-IP; endogenous Rrp46 immunoprecipitated with rabbit anti-hRrp46p and proteinG plus-agarose from lysates of cells expressing myc-tagged ZAP proteins; lysis buffer B (30 mM Hepes pH7.6, 100 mM NaCl, 0.5% NP-40) with 100 ug/ml RNase A; 4°C, 2 h; Western blot with anti-myc; pre-immune serum as control

B3: myc-tagged full-length ZAP mutant Zm23 (protein, UniProt Q8K3Y6 1-776)
chain: MADPGVCCFITKILCAHGGRMTAAALLGEIRLPEAQLYELLETAGPDRFVLLETGGQAGITRSVVATTRARVCRRKYCQRPCDSLHLCKLNLLGRCHYAQSQRNLCKYSHDVLSEQNFQILKNHELSGLNQEELACLLVQSDPFFLPEICKSYKGEGRKQTCGQPQPCERLHICEHFTRGNCSYLNCLRSHNLMDRKVLTIMREHGLSPDVVQNIQDICNNKHARRNPPGTRAAHPHRRGGAHRDRSKSRDRFLHNSLEFLSPVVSPLGSGPPSPDVTSCKDSLEDVSVDVTQKFKYLGTHDRAQLSPVSSKAAGVQGPSQMRASQEFSEDGNLDDIFSRNRSDSSSSRASAAKVAQRNEAVAMKMGMEVKGKKEAPDIDRVPFLNSYIDGVTMEKASVSGIPGKKFTANDLENLLLLNDTWKNVAKPQDLQTTGRITDSGQDKAFLQNKYGGNPVWASASTHNAPNGSSQIMDETPNVSKSSTSGFAIKPAIAGGKEAVYSGVQSPRSQVLAVPGEATTPVQSNRLPQSPLSSSSHRAAASGSPGKNSTHTSVSPAIESSRMTSDPDEYLLRYILNPLFRMDNHGPKEICQDHLYKGCQQSHCDRSHFHLPYRWQMFVYTTWRDFQDMESIEQAYCDPHVELILIENHQINFQKMTCDSYPIRRLSTPSYEEKPLSAVFATKWIWYWKNEFNEYIQYGNESPGHTSSDINSAYLESFFQSCPRGVLPFQAGSQKYELSFQGMIQTNIASKTQRHVVRRPVFVSSNDVEQKRRGPE
binding: binds

B5: myc-tagged CZAP429 (amino acids 429-776 of ZAP) (domain or fragment, UniProt Q8K3Y6 429-776)
chain: QDLQTTGRITDSGQDKAFLQNKYGGNPVWASASTHNAPNGSSQIMDETPNVSKSSTSGFAIKPAIAGGKEAVYSGVQSPRSQVLAVPGEATTPVQSNRLPQSPLSSSSHRAAASGSPGKNSTHTSVSPAIESSRMTSDPDEYLLRYILNPLFRMDNHGPKEICQDHLYKGCQQSHCDRSHFHLPYRWQMFVYTTWRDFQDMESIEQAYCDPHVELILIENHQINFQKMTCDSYPIRRLSTPSYEEKPLSAVFATKWIWYWKNEFNEYIQYGNESPGHTSSDINSAYLESFFQSCPRGVLPFQAGSQKYELSFQGMIQTNIASKTQRHVVRRPVFVSSNDVEQKRRGPE
binding: no binding

The remaining lines, values ahead:

binding: binds
B1: myc-tagged full-length ZAP mutant Zm113 (protein, UniProt Q8K3Y6 1-776)
chain: B3 chain with A23L, A24E, A25E, L113A, S114A, E115A

binding: binds
B2: myc-tagged full-length ZAP mutant Zm133 (protein, UniProt Q8K3Y6 1-776)
chain: B3 chain with A23L, A24E, A25E, E133A, L134A

binding: binds
B4: myc-tagged full-length ZAP mutant Zm53 (protein, UniProt Q8K3Y6 1-776)
chain: B3 chain with A23L, A24E, A25E, E53A, T54A, G55A
